Data reported in the supplement of paper PMC10849652.
The list shows a part of the results. Residues, ends and D or L forms follow the SMILES beside them. *: point of attachment. Cbz = O=C(OCc1ccccc1)*

Amino acid sequences for entries named in this document (tags omitted). A change or cut given only in a name is not applied to a line headed by its entry.
UniProt Q96D70: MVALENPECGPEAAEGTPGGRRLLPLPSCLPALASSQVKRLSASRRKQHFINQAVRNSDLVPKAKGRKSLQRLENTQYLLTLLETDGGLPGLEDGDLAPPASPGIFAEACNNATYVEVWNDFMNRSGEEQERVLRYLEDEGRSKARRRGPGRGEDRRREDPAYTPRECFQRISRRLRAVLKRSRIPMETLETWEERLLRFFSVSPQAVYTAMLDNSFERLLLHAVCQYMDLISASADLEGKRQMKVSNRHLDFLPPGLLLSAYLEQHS
UniProt Q5T8P6: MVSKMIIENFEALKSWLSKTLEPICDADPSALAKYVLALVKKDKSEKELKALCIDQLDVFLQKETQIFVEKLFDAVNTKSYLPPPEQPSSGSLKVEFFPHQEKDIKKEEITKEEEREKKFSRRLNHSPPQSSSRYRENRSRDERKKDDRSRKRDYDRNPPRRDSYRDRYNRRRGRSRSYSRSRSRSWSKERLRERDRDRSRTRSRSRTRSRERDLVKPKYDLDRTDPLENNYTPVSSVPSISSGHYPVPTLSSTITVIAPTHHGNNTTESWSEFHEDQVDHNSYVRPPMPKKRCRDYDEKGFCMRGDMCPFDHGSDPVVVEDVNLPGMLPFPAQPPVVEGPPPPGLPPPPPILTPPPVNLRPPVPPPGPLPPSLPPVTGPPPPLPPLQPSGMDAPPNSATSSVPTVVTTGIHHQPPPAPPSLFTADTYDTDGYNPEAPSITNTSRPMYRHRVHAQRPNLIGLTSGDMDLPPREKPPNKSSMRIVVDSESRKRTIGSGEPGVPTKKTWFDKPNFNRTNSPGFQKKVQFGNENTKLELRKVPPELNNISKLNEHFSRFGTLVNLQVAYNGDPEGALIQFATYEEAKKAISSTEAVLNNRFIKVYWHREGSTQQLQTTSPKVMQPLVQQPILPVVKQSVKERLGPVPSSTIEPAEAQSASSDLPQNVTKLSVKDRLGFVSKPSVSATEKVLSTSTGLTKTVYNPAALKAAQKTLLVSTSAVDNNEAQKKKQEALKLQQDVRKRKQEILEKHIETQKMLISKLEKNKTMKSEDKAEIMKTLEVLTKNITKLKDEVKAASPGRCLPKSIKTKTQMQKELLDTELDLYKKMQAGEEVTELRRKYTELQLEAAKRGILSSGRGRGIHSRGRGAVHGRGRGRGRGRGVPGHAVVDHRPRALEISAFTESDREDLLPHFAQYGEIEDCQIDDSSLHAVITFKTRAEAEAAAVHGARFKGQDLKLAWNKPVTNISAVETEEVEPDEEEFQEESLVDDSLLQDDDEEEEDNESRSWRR
UniProt Q5T160: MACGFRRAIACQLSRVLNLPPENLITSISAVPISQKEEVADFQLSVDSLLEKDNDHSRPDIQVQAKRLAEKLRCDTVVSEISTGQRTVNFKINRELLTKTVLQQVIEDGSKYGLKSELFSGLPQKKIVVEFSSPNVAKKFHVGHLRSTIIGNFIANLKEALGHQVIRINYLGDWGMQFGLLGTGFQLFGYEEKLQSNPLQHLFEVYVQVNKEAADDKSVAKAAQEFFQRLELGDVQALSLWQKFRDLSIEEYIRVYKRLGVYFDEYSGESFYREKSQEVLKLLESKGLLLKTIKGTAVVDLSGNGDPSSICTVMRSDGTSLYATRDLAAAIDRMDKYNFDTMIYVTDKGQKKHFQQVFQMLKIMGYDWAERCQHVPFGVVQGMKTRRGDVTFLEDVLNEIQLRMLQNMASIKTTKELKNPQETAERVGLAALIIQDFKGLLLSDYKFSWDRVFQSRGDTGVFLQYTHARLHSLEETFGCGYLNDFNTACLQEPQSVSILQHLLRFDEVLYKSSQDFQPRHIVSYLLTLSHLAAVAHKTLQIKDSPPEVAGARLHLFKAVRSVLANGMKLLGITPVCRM
UniProt Q9BUV8: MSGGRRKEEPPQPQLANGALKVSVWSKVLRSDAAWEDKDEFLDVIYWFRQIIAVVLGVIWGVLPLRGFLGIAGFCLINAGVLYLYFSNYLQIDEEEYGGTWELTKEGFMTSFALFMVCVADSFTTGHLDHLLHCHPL
UniProt Q86X27: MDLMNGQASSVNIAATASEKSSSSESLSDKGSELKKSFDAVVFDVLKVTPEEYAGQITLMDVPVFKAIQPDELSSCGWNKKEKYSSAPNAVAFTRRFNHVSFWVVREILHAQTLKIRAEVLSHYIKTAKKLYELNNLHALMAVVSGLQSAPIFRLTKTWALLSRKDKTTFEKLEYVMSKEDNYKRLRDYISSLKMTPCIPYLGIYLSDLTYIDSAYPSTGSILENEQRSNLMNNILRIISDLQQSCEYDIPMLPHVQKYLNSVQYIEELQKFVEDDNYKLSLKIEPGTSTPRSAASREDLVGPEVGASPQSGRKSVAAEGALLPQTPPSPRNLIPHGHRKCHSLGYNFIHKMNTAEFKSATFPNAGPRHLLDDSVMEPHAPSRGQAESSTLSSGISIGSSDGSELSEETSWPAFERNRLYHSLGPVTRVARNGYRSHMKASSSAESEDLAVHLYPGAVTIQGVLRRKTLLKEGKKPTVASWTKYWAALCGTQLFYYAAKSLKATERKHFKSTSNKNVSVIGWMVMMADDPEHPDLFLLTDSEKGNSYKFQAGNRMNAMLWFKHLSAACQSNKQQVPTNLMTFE
UniProt P11233: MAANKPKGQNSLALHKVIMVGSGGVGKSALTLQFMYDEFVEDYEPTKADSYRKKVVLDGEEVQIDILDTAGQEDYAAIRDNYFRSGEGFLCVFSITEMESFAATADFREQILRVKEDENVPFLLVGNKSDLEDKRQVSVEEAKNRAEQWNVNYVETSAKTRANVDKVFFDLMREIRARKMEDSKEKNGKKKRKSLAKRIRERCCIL
UniProt Q9Y3L5: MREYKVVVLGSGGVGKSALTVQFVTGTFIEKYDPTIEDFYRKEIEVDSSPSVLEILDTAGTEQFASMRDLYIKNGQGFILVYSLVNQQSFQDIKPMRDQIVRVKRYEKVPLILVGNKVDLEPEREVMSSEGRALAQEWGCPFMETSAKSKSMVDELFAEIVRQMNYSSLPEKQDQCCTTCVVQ
UniProt Q86WH2: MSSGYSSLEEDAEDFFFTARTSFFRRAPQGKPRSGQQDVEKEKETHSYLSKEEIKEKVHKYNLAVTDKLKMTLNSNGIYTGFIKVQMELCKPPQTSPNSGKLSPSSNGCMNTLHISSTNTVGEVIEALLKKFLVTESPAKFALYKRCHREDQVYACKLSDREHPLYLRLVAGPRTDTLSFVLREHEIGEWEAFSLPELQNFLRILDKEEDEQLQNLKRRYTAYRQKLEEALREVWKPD
UniProt Q86X10: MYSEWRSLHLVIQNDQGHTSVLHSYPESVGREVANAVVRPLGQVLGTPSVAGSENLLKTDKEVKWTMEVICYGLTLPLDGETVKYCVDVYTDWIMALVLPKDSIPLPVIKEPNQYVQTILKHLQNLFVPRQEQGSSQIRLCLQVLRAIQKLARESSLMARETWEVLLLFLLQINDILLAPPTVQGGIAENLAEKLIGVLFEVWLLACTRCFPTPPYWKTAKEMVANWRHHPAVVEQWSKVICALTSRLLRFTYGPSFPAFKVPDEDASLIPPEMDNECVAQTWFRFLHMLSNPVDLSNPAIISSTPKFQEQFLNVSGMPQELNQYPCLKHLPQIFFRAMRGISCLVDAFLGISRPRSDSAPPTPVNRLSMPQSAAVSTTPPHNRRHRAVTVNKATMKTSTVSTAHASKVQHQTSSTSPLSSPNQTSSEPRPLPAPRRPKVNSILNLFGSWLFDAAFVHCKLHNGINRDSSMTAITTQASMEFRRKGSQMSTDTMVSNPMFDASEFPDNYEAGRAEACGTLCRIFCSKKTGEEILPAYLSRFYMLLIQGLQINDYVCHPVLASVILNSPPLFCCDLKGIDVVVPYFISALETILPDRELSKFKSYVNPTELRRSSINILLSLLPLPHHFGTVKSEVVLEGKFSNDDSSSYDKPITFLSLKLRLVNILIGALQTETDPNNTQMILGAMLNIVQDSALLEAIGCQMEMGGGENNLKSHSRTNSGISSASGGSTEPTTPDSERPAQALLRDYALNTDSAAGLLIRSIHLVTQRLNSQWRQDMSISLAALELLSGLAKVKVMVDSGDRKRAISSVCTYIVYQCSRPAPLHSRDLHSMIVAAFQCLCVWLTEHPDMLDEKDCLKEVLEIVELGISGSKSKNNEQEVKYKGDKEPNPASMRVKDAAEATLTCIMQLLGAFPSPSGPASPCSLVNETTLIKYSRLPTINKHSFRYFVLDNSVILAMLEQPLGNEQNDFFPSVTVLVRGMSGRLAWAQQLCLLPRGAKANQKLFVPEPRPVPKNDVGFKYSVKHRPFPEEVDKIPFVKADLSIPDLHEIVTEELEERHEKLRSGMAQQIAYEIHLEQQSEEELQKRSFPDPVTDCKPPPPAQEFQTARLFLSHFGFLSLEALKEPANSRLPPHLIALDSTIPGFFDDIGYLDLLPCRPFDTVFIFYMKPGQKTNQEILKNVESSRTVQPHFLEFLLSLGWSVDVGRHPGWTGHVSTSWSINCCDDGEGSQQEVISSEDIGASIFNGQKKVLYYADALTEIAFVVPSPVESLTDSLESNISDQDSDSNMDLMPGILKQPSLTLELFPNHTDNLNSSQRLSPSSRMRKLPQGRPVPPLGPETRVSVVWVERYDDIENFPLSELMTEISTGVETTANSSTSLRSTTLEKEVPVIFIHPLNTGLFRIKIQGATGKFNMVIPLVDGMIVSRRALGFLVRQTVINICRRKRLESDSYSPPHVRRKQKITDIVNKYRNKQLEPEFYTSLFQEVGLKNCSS
UniProt Q99708: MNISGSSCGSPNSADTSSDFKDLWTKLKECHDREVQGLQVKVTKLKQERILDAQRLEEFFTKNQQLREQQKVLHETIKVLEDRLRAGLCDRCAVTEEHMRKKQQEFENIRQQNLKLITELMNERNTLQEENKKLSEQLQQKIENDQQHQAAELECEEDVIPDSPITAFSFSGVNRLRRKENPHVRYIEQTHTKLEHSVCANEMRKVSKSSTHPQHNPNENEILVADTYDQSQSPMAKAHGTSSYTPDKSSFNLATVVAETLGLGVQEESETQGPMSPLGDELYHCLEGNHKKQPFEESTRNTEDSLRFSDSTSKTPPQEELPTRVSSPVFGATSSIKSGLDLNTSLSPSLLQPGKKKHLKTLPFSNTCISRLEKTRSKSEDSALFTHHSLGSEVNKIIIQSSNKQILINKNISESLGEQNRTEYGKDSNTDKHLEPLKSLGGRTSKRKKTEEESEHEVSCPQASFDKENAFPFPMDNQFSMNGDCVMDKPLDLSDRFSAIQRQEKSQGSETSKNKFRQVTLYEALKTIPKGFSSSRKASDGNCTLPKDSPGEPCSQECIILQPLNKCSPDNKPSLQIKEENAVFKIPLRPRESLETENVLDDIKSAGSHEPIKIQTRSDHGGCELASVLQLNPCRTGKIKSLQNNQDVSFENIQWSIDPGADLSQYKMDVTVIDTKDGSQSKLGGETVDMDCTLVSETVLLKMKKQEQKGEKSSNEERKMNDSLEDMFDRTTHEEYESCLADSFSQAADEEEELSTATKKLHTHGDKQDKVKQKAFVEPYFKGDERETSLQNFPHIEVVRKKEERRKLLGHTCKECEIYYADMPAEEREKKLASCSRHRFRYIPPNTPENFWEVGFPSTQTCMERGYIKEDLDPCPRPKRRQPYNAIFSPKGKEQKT
UniProt O75884: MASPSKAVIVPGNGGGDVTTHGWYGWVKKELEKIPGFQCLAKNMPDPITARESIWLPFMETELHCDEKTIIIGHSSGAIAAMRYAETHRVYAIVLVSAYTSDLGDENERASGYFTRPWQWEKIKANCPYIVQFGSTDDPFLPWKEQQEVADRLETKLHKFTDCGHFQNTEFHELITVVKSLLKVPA

What was measured:
Test in all cases: log2 fold change, soluble protein after heating vs DMSO (PISA); higher = thermal stabilisation; K562 cells, 10 uM, 30 min; active = over 0.2 and 3.5 SD of the protein, either way, in both replicates (recomputed)
erlotinib = compound: C#Cc1cccc(Nc2ncnc3cc(OCCOC)c(OCCOC)cc23)c1 [erlotinib]
Summary of the method: (§1)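 K562 cells at 2×10^6 cells/mL were treated for 30 min with 10 μM compound, and aliquots were heated for 3 min over 48°C-58°C before pooling. Extraction used PBS with 0.5% NP-40 at 4°C, and soluble protein was the supernatant after 21,000xg for 90 min, measured by TMTpro 16plex LC-MS/MS with channel sums equalised. Thermal stability values, relative to control samples and from duplicates, are log2 fold changes.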

[1] = compound: C/C(=N\NC(=O)C1=CC(=CC=C1)S(=O)(=O)N2CCOCC2)/C3=C(C=CC(=C3)Cl)O
Summary of the method: as §1

[2] = compound: C1=CC(=C(C=C1Cl)C2=NC3=NC=CN=C3C(=N2)NC4=CC=NC=C4)F
Summary of the method: as §1

[3] = compound: C1=CC(=CC=C1C2=NC3=C(N2)C=C(C=C3)C(=O)N)OC4=CC=C(C=C4)Cl
Summary of the method: as §1

[4] = compound: C1=CC2=C(C=CC(=C2)/C=C\3/C(=O)NC(=NCC4=CC=CS4)S3)N=C1
Summary of the method: as §1

[5] = compound: C1=CC2=NC=CN=C2C=C1/C=C/3\C(=O)NC(=O)S3
Summary of the method: as §1

[6] = compound: C1=CC=C2C(=C1)C3=NNC4=CC=CC(=C43)C2=O
Summary of the method: as §1

[7] = compound: C1CCN(C1)C(=O)NC2=CC=CC(=C2)NC3=NC=C(C(=N3)NCCC4=CN=CN4)Br
Summary of the method: as §1

[8] = compound: C1CN(CCC1(CC2=CC=C(C=C2)Cl)N)C3=NC=NC4=C3C=CN4
Summary of the method: as §1

ibrutinib = compound: C=CC(=O)N1CCC[C@@H](n2nc(-c3ccc(Oc4ccccc4)cc3)c3c(N)ncnc32)C1 [ibrutinib]
Summary of the method: as §1

[9] = compound: CC(=O)c1cnc2ccc(-c3cc(Cl)c(O)c(Cl)c3)nc2c1N[C@H]1CC[C@H](CN(C)C)CC1
Summary of the method: as §1

[10] = compound: CC(C)(O)CC(=O)NCCn1ccc2ncnc(Nc3ccc(Oc4cccc(C(F)(F)F)c4)c(Cl)c3)c21
Summary of the method: as §1

[11] = compound: CC(C)C1=C2N=C(C=C(N2N=C1)NCC3=CC=CC=C3)NCCCCCCN
Summary of the method: as §1

[12] = compound: CC1=C(C(CC(=O)N1)C2=CC=C(C=C2)C(F)(F)F)C(=O)NC3=C(C=C4C(=C3)C=NN4)F
Summary of the method: as §1

[13] = compound: CC1=C(C2=C(C=C1)C(=O)C3=CC=CC=C3N2CCCN)C
Summary of the method: as §1

[14] = compound: C1=CC=C(C=C1)C2=NC(=C(N2)C3=CC=NC=C3)C4=CC(=C(C=C4)Cl)O
Summary of the method: as §1

IRAK-1-4 Inhibitor I = compound: C1COCCN1CCN2C3=CC=CC=C3N=C2NC(=O)C4=CC(=CC=C4)[N+](=O)[O-] [IRAK-1-4 Inhibitor I]
Summary of the method: as §1

ralimetinib = compound: CC(C)(C)Cn1c(N)nc2ccc(-c3[nH]c(C(C)(C)C)nc3-c3ccc(F)cc3)nc21 [ralimetinib]
Summary of the method: as §1

[15] = compound: CC(C)C[C@@H](C=O)NC(=O)[C@H](CC(C)C)NC(=O)[C@H](CC(C)C)NC(=O)OCc1ccccc1
Summary of the method: as §1

pinometostat = compound: CC(C)N(C[C@H]1O[C@@H](n2cnc3c(N)ncnc32)[C@H](O)[C@@H]1O)[C@H]1C[C@@H](CCc2nc3cc(C(C)(C)C)ccc3[nH]2)C1 [pinometostat]
Summary of the method: as §1

Target | log2 fold change (erlotinib) | log2 fold change [1] | log2 fold change [2] | log2 fold change [3] | log2 fold change [4] | log2 fold change [5] | log2 fold change [6] | log2 fold change [7] | log2 fold change [8] | log2 fold change (ibrutinib) | log2 fold change [9] | log2 fold change [10] | log2 fold change [11] | log2 fold change [12] | log2 fold change [13] | log2 fold change [14] | log2 fold change (IRAK-1-4 Inhibitor I) | log2 fold change (ralimetinib) | log2 fold change [15] | log2 fold change (pinometostat)
R3HDM4 (UniProt Q96D70) | inactive: 0.02 | inactive: -0.04 | inactive: -0.124 | inactive: 0.068 | inactive: -0.142 | inactive: 0.016 | inactive: 0.111 | inactive: -0.031 | inactive: -0.139 | inactive: 0.019 | inactive: 0.126 | inactive: 0.031 | inactive: -0.034 | inactive: -0.054 | inactive: -0.123 | – | – | – | – | –
RBM26 isoform 2 (UniProt Q5T8P6) | inactive: 0.174 | inactive: 0.216 | inactive: 0.25 | inactive: -0.004 | inactive: -0.018 | inactive: 0 | inactive: 0.002 | inactive: -0.027 | inactive: 0.012 | inactive: 0.032 | inactive: -0.179 | inactive: -0.16 | inactive: -0.295 | – | inactive: 0.06 | inactive: 0.113 | inactive: -0.086 | inactive: -0.021 | inactive: 0.024 | inactive: -0.022
RACK1 (UniProt D6RF23) | inactive: 0.085 | inactive: -0.129 | inactive: -0.106 | inactive: -0.049 | inactive: 0.343 | inactive: 0.045 | inactive: 0.151 | inactive: 0.247 | inactive: -0.166 | inactive: -0.139 | inactive: -0.17 | inactive: -0.065 | inactive: -0.115 | – | inactive: 0.058 | inactive: -0.294 | inactive: -0.148 | inactive: -0.2 | inactive: 0.128 | inactive: -0.005
RARS2 (UniProt Q5T160) | inactive: 0.009 | inactive: 0.057 | inactive: 0.063 | inactive: 0.029 | inactive: 0.015 | inactive: 0.014 | inactive: 0 | inactive: 0.022 | inactive: 0.038 | inactive: 0.003 | inactive: -0.012 | inactive: -0.081 | inactive: -0.214 | – | inactive: -0.007 | inactive: 0.056 | inactive: 0.053 | inactive: -0.039 | inactive: -0.061 | inactive: -0.032
RBBP7 (UniProt Q16576) | inactive: 0.026 | inactive: -0.037 | inactive: -0.027 | inactive: -0.003 | inactive: -0.018 | inactive: -0.029 | inactive: 0.028 | – | – | inactive: -0.02 | inactive: 0.015 | inactive: 0.023 | inactive: 0.049 | inactive: -0.001 | – | inactive: -0.109 | inactive: -0.003 | inactive: -0.176 | inactive: -0.04 | inactive: -0.111
RAB5IF isoform 5 (UniProt Q9BUV8) | inactive: 0.071 | inactive: 0.093 | inactive: 0.098 | inactive: 0.055 | inactive: -0.061 | inactive: 0.112 | inactive: 0.036 | inactive: 0.027 | inactive: 0.267 | inactive: 0.031 | inactive: 0.048 | inactive: 0.021 | inactive: -0.187 | – | inactive: -0.036 | active: 0.373 | inactive: -0.082 | inactive: 0.3 | inactive: -0.143 | inactive: -0.105
RALGPS2 (UniProt Q86X27) | inactive: -0.43 | inactive: -0.07 | inactive: -0.321 | inactive: 0.037 | inactive: -0.079 | inactive: 0.111 | inactive: -0.012 | inactive: -0.06 | inactive: 0.154 | inactive: 0.061 | inactive: -0.045 | inactive: 0.051 | inactive: 0.141 | – | inactive: 0.029 | – | inactive: -0.249 | – | – | inactive: 0.397
RALA (UniProt P11233) | inactive: 0.087 | inactive: -0.005 | inactive: 0.033 | inactive: -0.05 | inactive: 0.005 | inactive: 0.056 | inactive: -0.045 | inactive: -0.066 | inactive: 0.104 | inactive: 0.038 | inactive: 0.018 | inactive: 0.096 | inactive: 0.103 | – | inactive: 0.054 | inactive: -0.076 | inactive: -0.005 | inactive: -0.113 | inactive: -0.033 | inactive: -0.123
RABGAP1L isoform 5 (UniProt Q5R372) | inactive: 0.114 | inactive: 0.043 | inactive: -0.076 | inactive: 0.089 | inactive: -0.007 | inactive: 0.045 | inactive: -0.097 | inactive: 0.023 | inactive: 0.016 | inactive: -0.031 | inactive: -0.025 | inactive: -0.057 | inactive: -0.125 | – | inactive: -0.271 | – | inactive: 0.04 | – | – | inactive: -0.17
RAP2C (UniProt Q9Y3L5) | inactive: 0.021 | inactive: 0.119 | inactive: 0.205 | inactive: 0.01 | inactive: -0.097 | inactive: 0.026 | inactive: 0.167 | inactive: -0.008 | inactive: 0.034 | inactive: 0.016 | inactive: -0.032 | inactive: -0.107 | inactive: 0.148 | – | inactive: 0.11 | inactive: 0.026 | – | inactive: 0.021 | inactive: 0.048 | –
RASSF3 (UniProt Q86WH2) | inactive: 0.032 | inactive: -0.016 | – | inactive: 0.028 | inactive: -0.044 | inactive: 0.2 | inactive: -0.018 | – | – | inactive: -0.125 | inactive: 0.223 | – | inactive: 0.107 | inactive: -0.095 | – | inactive: 0.099 | – | inactive: -0.021 | inactive: 0.244 | –
RAP1B (UniProt F5GWU8) | – | inactive: -0.438 | – | – | inactive: 0.145 | – | inactive: -0.163 | – | – | – | inactive: -0.488 | – | – | – | – | inactive: 0.34 | inactive: 0.111 | inactive: -0.112 | inactive: -0.001 | inactive: 0.004
RALGAPB (UniProt Q86X10) | – | inactive: 0.012 | inactive: 0.072 | – | inactive: -0.132 | inactive: -0.016 | inactive: -0.003 | inactive: -0.063 | inactive: -0.098 | inactive: 0 | inactive: -0.074 | inactive: -0.026 | – | inactive: -0.007 | inactive: 0.024 | inactive: -0.083 | inactive: -0.078 | inactive: 0.014 | inactive: 0.063 | inactive: 0.042
RBM14 (UniProt Q96PK6) | inactive: 0.086 | inactive: -0.318 | – | inactive: 0.069 | inactive: 0.362 | inactive: 0.044 | inactive: -0.172 | inactive: -0.064 | inactive: -0.529 | inactive: 0.15 | inactive: 0.072 | – | inactive: -0.214 | – | inactive: 0.12 | inactive: 0.001 | inactive: -0.143 | inactive: 0.118 | inactive: 0.058 | inactive: 0.174
RAB11FIP5 (UniProt Q9BXF6) | – | – | – | – | – | – | – | – | – | – | – | – | – | – | – | inactive: -0.189 | – | inactive: -0.066 | inactive: -0.062 | –
RBBP8 isoform 2 (UniProt Q99708) | inactive: -0.073 | inactive: 0.232 | – | inactive: 0.002 | inactive: -0.225 | – | inactive: -0.032 | inactive: -0.087 | inactive: -0.21 | – | inactive: -0.301 | – | inactive: 0.063 | – | inactive: 0.028 | – | inactive: -0.012 | – | – | inactive: 0.03
RBBP9 (UniProt O75884) | – | – | inactive: -0.037 | – | – | – | – | – | – | – | – | inactive: -0.079 | – | – | – | – | – | – | – | –

Laid out differently: entries from further up.

| Target | log2 fold change (erlotinib) | log2 fold change [1] | log2 fold change [2] | log2 fold change [3] | log2 fold change [4] | log2 fold change [5] | log2 fold change [6] | log2 fold change [7] | log2 fold change [8] | log2 fold change (ibrutinib) | log2 fold change [9] | log2 fold change [10] | log2 fold change [11] | log2 fold change [12] | log2 fold change [13] | log2 fold change [14] | log2 fold change (IRAK-1-4 Inhibitor I) | log2 fold change (ralimetinib) | log2 fold change [15] | log2 fold change (pinometostat) |
| --- | --- | --- | --- | --- | --- | --- | --- | --- | --- | --- | --- | --- | --- | --- | --- | --- | --- | --- | --- | --- |
| RBBP8 isoform 2 (UniProt Q99708) | inactive: -0.073 | inactive: 0.232 | – | inactive: 0.002 | inactive: -0.225 | – | inactive: -0.032 | inactive: -0.087 | inactive: -0.21 | – | inactive: -0.301 | – | inactive: 0.063 | – | inactive: 0.028 | – | inactive: -0.012 | – | – | inactive: 0.03 |
| RBBP9 (UniProt O75884) | – | – | inactive: -0.037 | – | – | – | – | – | – | – | – | inactive: -0.079 | – | – | – | – | – | – | – | – |
